# Laboratory results from the supplement of paper PMC12578635.
# ± gives the standard deviation of the averaged measurements. The list shows a part of the results. Single values are uncertain, as repeats are few or missing.
# Test system: RAW 264.7 macrophages infected with S. aureus JE2-lux
# Test: host macrophage viability (CellTiter-Fluor) relative to DMSO vehicle; higher = more viable host cells
# Conditions: 10 µM; treatment time 4 h; gentamicin 50 µg/ml
row,SMILES,host macrophage viability [%]
1,CCn1c(C(=O)NCc2ccccn2)c(N2CCCC2=O)c2cc(F)ccc21,113
2,CC[C@@H](Cn1nc(-c2cccs2)ccc1=O)NC(=O)c1cccs1,108
3,COC(=O)C1=C(N)Oc2c(oc(CO)cc2=O)C1c1ccc2c(c1)OCO2 (stereo not drawn),98.1
4,O=C(NCCCC1CCOC1)c1cnn(-c2ccc(F)cc2)c1 (stereo not drawn),109
5,COc1cccc(NCc2cc3c(C)nn(-c4ccc(F)cc4)c3[nH]c2=O)c1,116
6,Nc1ncnc(SC2=NCCCN2)c1[N+](=O)[O-],113
7,COc1ccc(C2=C(C)C(N3CCC(C(=O)NCc4ccc5c(c4)OCO5)CC3)=NS2(=O)=O)cc1,125
8,Cc1cccc2sc(NC(=O)CN3C(=O)c4ccccc4S3(=O)=O)nc12,131
9,O=C(CCn1cnc2c(-c3ccccc3)noc2c1=O)NC1CCS(=O)(=O)C1 (stereo not drawn),115
10,Cc1cccc2c1NC(=O)C2(O)CC(=O)c1ccc(-c2ccc(Cl)cc2)o1 (stereo not drawn),110
11,Cc1cn2c3c(=O)n(C)c(=O)n(C)c3nc2n1CCCn1ccnc1,115
12,CC(=O)Nc1c(C)cc(C)c(NS(=O)(=O)c2ccc3c(c2)NC(=O)CO3)c1C,116
13,COc1ccc(OC)c(CCn2c(=S)[nH]c3c(oc4ccccc43)c2=O)c1,136
14,CC(=O)c1ccc(S(=O)(=O)Nc2ccc(-n3c(C)nc4ccccc4c3=O)cc2)cc1,135
15,O=C(NCc1ccc2c(c1)OCO2)C1CCN(c2nccn3nc(-c4ccc(F)cc4)cc23)CC1,135
16,CN1CCCC(NC(=O)COc2ncnc3ccccc23)C1 (stereo not drawn),119
17,CCCC(CCC)C(=O)N1CCC(c2nnc(C(=O)Nc3ccccc3C)s2)CC1,113
18,O=C(NCc1cccs1)c1cnc2cc3c(cc2c1O)OCCO3,104
19,COc1ccc(NC(=O)C2CCCN2C(=O)NC2CCCCC2)c(OC)c1 (stereo not drawn),117
20,CCOC(=O)c1oc2ccccc2c1NC(=O)c1cccc([N+](=O)[O-])c1,121 ± 8
21,Cc1ccc(CNC(=O)CCc2nc(N3CCCC3)c3c(C)noc3n2)cc1,102
22,CC(NC(=O)COc1ncnc2onc(-c3cccc(F)c3)c12)c1ccccc1 (stereo not drawn),129
23,Cc1ccc(/C=C2/S/C(=N/c3ccc(O)cc3)NC2=O)o1,99.2 ± 14
24,Cc1[nH]c2nc(CNc3cccc(Cl)c3C)nn2c(=O)c1C,107
25,Cc1nn(-c2ccccc2)c2ncc(C(=O)NCCC(C)C)c(NCc3ccc(Cl)cc3)c12,98.3
26,O=C(CCCCn1c(=O)[nH]c2ccsc2c1=O)NCC1CCCO1 (stereo not drawn),110

row,SMILES,host macrophage viability [%]
1,Cc1sc2ncnc(SCC(=O)Nc3sc(-c4ccccc4)cc3C(N)=O)c2c1C,107
2,Cc1n[nH]c2c1C(C(=O)c1cccc(Cl)c1)CC(=O)N2 (stereo not drawn),105
3,COc1ccc(C(=O)C2CCN(CC(=O)Nc3ccccc3F)CC2)cc1,107
4,Cc1n[nH]c2c1C(C(=O)c1ccc3c(c1)OCCO3)CC(=O)N2 (stereo not drawn),121
5,Cc1cc2c(cc1C)NC(CC(=O)Nc1ccccc1[N+](=O)[O-])C(=O)N2 (stereo not drawn),95.2
6,Cc1ccc(NC(=O)N2CCCC2C(=O)Nc2ccccc2Cl)cc1 (stereo not drawn),106
7,COc1ccc(Nc2cc(C)nc(-n3cc([N+](=O)[O-])cn3)n2)cc1Cl,118
8,O=C(CN1N=NC2C(=O)N(c3ccc(Br)cc3)C(=O)C21)Nc1ccccc1[N+](=O)[O-] (stereo not drawn),119
9,CCn1c(SCc2nnc(-c3ccc(OC)c(OC)c3)o2)nc2ccccc2c1=O,102
10,Cc1ccc(C(=O)Nc2nc(-c3ccc(C)s3)ns2)cc1,109
11,CCN1CCN(c2nc3ncn(CC(=O)Nc4ccc(F)c(C)c4)c(=O)c3s2)CC1,89.6
12,COC(=O)c1ccc(C(=O)NC(=S)Nc2nc3c(s2)CCc2ccccc2-3)cc1,118 ± 20
13,O=C(Nc1cccc(Cl)c1)c1cc(-c2ccc3c(c2)OCCO3)on1,107
14,COc1ccc(NC(=S)N2CCC(n3c(C)nc4cc(F)ccc43)CC2)cc1,85.8
15,CCc1cc2cc(C)ccc2nc1SCC(=O)NNC(=O)c1ccc(OC)cc1,119
16,Cc1nc2ccc(C(=O)NC(c3ccccc3)c3cccnc3)cc2[nH]1 (stereo not drawn),104
17,CCOc1ccccc1-c1nc(Cn2nc(-c3ccc(OC)cc3)c3c(C)onc3c2=O)c(C)o1,90.3
18,COc1cccc2sc(NNC(=O)c3cc(-c4cccs4)nc4ccccc34)nc12,126 ± 7.5
19,CC(=O)Nc1ccc(S(=O)(=O)Nc2ccc(O)c3ccccc23)cc1,124
20,CC(=O)Cc1nsc(NC(=O)c2cc(-c3ccc(Cl)cc3Cl)oc2C)n1,126
21,Cc1cc(C)c2nc(NC(=O)c3cccc(C(F)(F)F)c3)sc2c1,117
22,COc1ccc(-c2nc(OC)c3c4c(sc3n2)CCCC4)cc1,118
23,COc1cc2ccccc2cc1C(=O)Nc1ccc2c(c1)C(=O)N(C)C2=O,104
24,Cc1oc2c(O)c(O)ccc2c(=O)c1-c1ccccc1,116
25,COc1cc(/C=N/n2c(C)cc(C)c(C#N)c2=O)ccc1OC(C)=O,95.8
26,Cc1cc(O)nc(SCc2cn3cccnc3n2)n1,101

# Seven of these compounds, set out differently:
row	SMILES	host macrophage viability [%]
13	O=C(Nc1cccc(Cl)c1)c1cc(-c2ccc3c(c2)OCCO3)on1	107
14	COc1ccc(NC(=S)N2CCC(n3c(C)nc4cc(F)ccc43)CC2)cc1	85.8
15	CCc1cc2cc(C)ccc2nc1SCC(=O)NNC(=O)c1ccc(OC)cc1	119
16	Cc1nc2ccc(C(=O)NC(c3ccccc3)c3cccnc3)cc2[nH]1 (stereo not drawn)	104
17	CCOc1ccccc1-c1nc(Cn2nc(-c3ccc(OC)cc3)c3c(C)onc3c2=O)c(C)o1	90.3
18	COc1cccc2sc(NNC(=O)c3cc(-c4cccs4)nc4ccccc34)nc12	126 ± 7.5
19	CC(=O)Nc1ccc(S(=O)(=O)Nc2ccc(O)c3ccccc23)cc1	124

# (continued)

row,SMILES,host macrophage viability [%]
1,Cc1oc(-c2ccc(F)cc2)nc1C(=O)NC(c1ccccc1)c1cccnc1 (stereo not drawn),107
2,COc1ccc(OC)c2[nH]c(=O)c(CCNC(=O)c3cc4ccccc4oc3=O)cc12,112
3,COc1ccccc1CCNC(=N)NS(=O)(=O)c1ccc(F)cc1,114
4,CC(C)Cn1c(=O)c2ccc(C(=O)NC3CCCC3)cc2n2c(=S)[nH]nc12,124
5,CCOC(=O)c1ccccc1NC(=O)CSc1ncnc2c1nnn2-c1ccc(C)cc1,112 ± 4.5
6,CN(C)S(=O)(=O)c1ccc2nc(NC(=O)C(c3ccccc3)c3ccccc3)sc2c1,119
7,O=C(CN(C(=O)Cn1nnc2ccccc21)c1ccccc1)NCC1CCCO1 (stereo not drawn),112
8,Cc1cc(C)c(C#N)c(SCC(=O)Nc2cccc3cccnc23)n1,117
9,CCOC(=O)N1CCN(C(=O)CSc2ccnc3c2c(=O)n(C)c(=O)n3C)CC1,98
10,CSc1ccc(CNC(=O)c2nccn2Cc2ccccc2C)cc1,106
11,COc1ccc(CNC(=O)CSc2nc3[nH]ncc3c(=O)n2-c2ccccc2)cc1,116 ± 18
12,CC1CN(C(c2cccs2)c2sc3ncnn3c2O)CC(C)O1 (stereo not drawn),100
13,Cc1cc(C)n2nc(C(=O)NC(c3ccccc3)c3cccnc3)c(Cl)c2n1 (stereo not drawn),119
14,COc1ccc(C)cc1NC(=O)C1CCCN(C(=O)Nc2ccc(F)cc2)C1 (stereo not drawn),101
15,COc1ccc(S(=O)(=O)NC(=N)NCCc2ccc(Cl)cc2)cc1OC,119
16,O=C(NCc1ccc(F)cc1)C1CCN(c2nc(-c3ccccc3)no2)CC1,114
17,CCCCNC(=O)c1cc(-c2ccc(OC)cc2)nc2n[nH]c(-c3ccc(OC)cc3)c12,120
18,Cc1ccc(N/C=C(\C#N)c2nc(-c3ccc([N+](=O)[O-])cc3)cs2)cc1Cl,118 ± 16
19,O=C(CS(=O)(=O)c1ccccc1)Nc1ccc2c(c1)C(=O)NC2=O,122
20,O=C(CCn1cnc2ccccc2c1=O)NC1CCC(=O)NC1c1ccc(F)cc1 (stereo not drawn),115
21,Cc1ccc2onc(CNC(=O)N3CCCC3)c2c1,131
22,O=C(OC1CCCCC1)c1cc2cc([N+](=O)[O-])ccc2oc1=O,119
23,O=C(c1ccc(COc2ccc(F)cc2)o1)n1cccn1,119
24,CCn1c(=O)c(C)nc2cc(-c3noc(C(NS(=O)(=O)c4ccc(C)cc4)C(C)C)n3)ccc21 (stereo not drawn),126
25,O=C(O)c1cnc(N2CCC(N3CCCCC3)CC2)c(NS(=O)(=O)c2ccccc2)c1,113
26,CC(=O)N1c2ccc(NC(=O)C3(C)CC(=O)N=C4C=C(C)C=CN43)cc2CC1C (stereo not drawn),113

row,SMILES,host macrophage viability [%]
1,COc1cc(-c2nc(=O)[nH]c3ccc(Cl)cc23)cc(OC)c1OC,124.3 ± 0.71
2,O=C1CC(c2ccccc2OC2CCCC2)c2cnn(-c3nc4ccccc4s3)c2N1 (stereo not drawn),135
3,CC1CCCCN1S(=O)(=O)c1ccc(C(=O)Nc2sc3c(c2C#N)CCC3)cc1 (stereo not drawn),139
4,O=C(CSCc1nc(O)c2nnn(Cc3ccc(F)cc3)c2n1)Nc1ccc2c(c1)OCCO2,98.3
5,Cc1ccc(S(=O)(=O)n2nc(OC(=O)c3ccc(Cl)cc3Cl)cc2N)cc1,108
6,COc1ccc(-c2cc(C(=O)NCC(c3ccccc3Cl)N(C)C)no2)cc1 (stereo not drawn),136
7,CCc1cc(=O)[nH]c(Nc2ccc(C)c(Cl)c2)n1,120
8,CCOc1ccc(NC(=O)c2cnn3c(=O)c(C)c(C)[nH]c23)cc1,120
9,O=C(NCc1ccccc1Cl)C(=O)NCC(c1ccco1)S(=O)(=O)c1ccccc1 (stereo not drawn),125
10,Cc1ccc(NC(=O)N2CCCC2C(=O)Nc2cccnc2)cc1 (stereo not drawn),117
11,Cc1ccc2[nH]c3nc(SCC(=O)Nc4cccc(O)c4)nnc3c2c1,104
12,COc1ccc(CCNc2ncnc3c2c(-c2ccccc2)cn3-c2ccccc2C)cc1,102
13,CC(C)Sc1nc2c(c(=O)[nH]1)C(c1ccc(Br)cc1)C1=C(CCCC1=O)N2 (stereo not drawn),142
14,Nc1cc(O)nc(SCc2ccc(C(=O)c3ccccc3)cc2)n1,113
15,CCOC(=O)c1cc(C#N)c(SCC(=O)Nc2ccc(C(C)=O)cc2)nc1O,106
16,COc1ccc(NC(=O)CSc2nc(-c3ccccc3)c3ccccc3n2)c(OC)c1,110
17,COC(=O)c1ccc2c(=O)[nH]c3c(C(=O)N4CCOCC4)sc(=S)n3c2c1,121
18,COCCNC(=O)c1c(O)nc2sccn2c1=O,126
19,O=C(CN1C(=O)/C(=C/c2cccc(Cl)c2)SC1=S)Nc1ccc2oc(=O)ccc2c1,128
20,COc1ccc2oc(=O)c(C(=O)Oc3ccc(C(C)=O)cc3OC)cc2c1,116
21,O=C(c1ccc2c(c1)OCO2)N1CCc2nc(-c3ccccc3)[nH]c(=O)c2C1,105
22,Cc1ccccc1OCCn1cnc2ccccc21,115
23,O=C(CSc1nc(-c2ccc(Cl)cc2)cs1)NNC(=O)c1ccco1,116
24,C#CCn1/c(=N/C(=O)c2cc(=O)c3ccccc3o2)sc2cc3c(cc21)OCCO3,141
25,COc1ccc(N2CCN(CCNc3ncnc4scc(-c5ccc(Cl)cc5)c34)CC2)cc1,124
